Experimental data as given in PMC10713658.
These are yes or no findings as the source states them, for the method shown. Binding seen in cells or lysates may run through a third protein. Here binding means that the protein was enriched with, or labelled near, the bait; the list need not be complete. Tags and fused reporters may be left off the sequences shown.

The chains behind the UniProt entries cited, without tags or fusion partners.
UniProt Q9NYB9: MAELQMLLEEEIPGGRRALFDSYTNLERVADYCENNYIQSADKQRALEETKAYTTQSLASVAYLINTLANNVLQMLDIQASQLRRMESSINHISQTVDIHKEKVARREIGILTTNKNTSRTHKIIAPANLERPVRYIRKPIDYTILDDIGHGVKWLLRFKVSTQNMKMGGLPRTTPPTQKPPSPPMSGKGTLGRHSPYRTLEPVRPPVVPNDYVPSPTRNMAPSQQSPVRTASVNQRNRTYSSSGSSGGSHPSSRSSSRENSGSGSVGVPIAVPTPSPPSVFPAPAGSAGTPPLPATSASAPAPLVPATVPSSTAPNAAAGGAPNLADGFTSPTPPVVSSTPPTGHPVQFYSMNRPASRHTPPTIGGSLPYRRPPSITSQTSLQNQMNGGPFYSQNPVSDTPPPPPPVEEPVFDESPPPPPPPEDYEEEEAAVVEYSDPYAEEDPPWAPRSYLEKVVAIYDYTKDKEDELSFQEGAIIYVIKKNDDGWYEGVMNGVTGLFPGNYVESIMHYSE

Target: T1, Flag-GRAF1 WT (UniProt Q9UNA1)
T1 sequence: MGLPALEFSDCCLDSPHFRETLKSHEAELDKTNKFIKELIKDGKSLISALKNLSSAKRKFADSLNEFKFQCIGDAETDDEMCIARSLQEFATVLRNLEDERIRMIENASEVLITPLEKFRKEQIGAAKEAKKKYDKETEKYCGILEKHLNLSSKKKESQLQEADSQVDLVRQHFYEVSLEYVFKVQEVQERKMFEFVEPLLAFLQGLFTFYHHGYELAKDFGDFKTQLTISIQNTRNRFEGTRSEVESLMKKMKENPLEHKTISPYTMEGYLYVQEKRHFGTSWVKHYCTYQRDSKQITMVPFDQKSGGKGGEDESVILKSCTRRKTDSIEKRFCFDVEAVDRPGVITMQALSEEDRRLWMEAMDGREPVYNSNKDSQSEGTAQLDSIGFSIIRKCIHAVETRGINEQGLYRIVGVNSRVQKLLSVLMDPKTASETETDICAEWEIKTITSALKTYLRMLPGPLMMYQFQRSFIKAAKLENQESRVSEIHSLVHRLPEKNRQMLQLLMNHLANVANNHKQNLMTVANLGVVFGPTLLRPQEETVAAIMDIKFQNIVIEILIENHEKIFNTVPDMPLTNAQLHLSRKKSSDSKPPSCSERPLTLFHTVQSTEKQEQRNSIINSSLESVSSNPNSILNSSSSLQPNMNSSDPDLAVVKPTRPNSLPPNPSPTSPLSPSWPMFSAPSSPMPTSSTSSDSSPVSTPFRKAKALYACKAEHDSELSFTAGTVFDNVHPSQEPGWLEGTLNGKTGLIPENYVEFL
Test: affinity purification with mass spectrometry; Flag-GRAF1 IPd by M2 Flag antibody from GRAF1 KO Hela/YFP-Parkin cells treated with OA (2.5 μM oligomycin A, 250 nM antimycin A) for 6 h; on-bead trypsin digestion, LC-MS/MS, label-free quantitation against Flag-empty vector

binding: binds
Substance: Abelson- interactor adaptor-2 (ABI2) (from UniProt Q9NYB9 1-513)
